Data: patent US6627441B1, “Increasing levels of growth regulator and/or water stress during embryo development” (priority 1998, dated 2003)
Some of these results come from one statement about several compounds together.

System: white spruce somatic embryos
Assay: Effect of water stress and ABA on somatic embryo moisture contents (Example 4)
Format: cell-based
Settings: treatment 1: ABA 20 to 40 μM, 3% sucrose, 190 mmol/kg; after six weeks
Experimental: Water potentials were measured for liquid media containing various osmotica at a range of concentrations, which were plotted on a curve. Determinations were made using a vapour pressure osmometer (Wescor). Moisture content determinations were done using methods described previously by Attree et al. (U.S. Pat. No. 5,464,769).
Embryos were cultured on medium containing 3% sucrose and ABA, with additional osmoticum adjusted to vary water potentials, as shown in Table 4.
Embryos were cultured for six weeks and moisture contents determined. Determinations for each treatment were made weekly, with three replicates per treatment. 50 embryos per replicate were used. In some instances, particularly for the control with low osmoticum, insufficient embryos were produced. In these cases, the minimum number of embryos used per replicate was thirty. For weeks 0 to 2, the embryos were too small to be used for moisture content determinations, so whole tissue was used instead.

`CC1=CC(=O)CC(C)(C)[C@@]1(O)/C=C/C(C)=C\C(=O)O` [ABA, abscisic acid] was tested, and the “moisture content of somatic embryos” value was “greater than 60%”.
